Record: PubChem BioAssay AID1259308 (NCATS, 2017)
Assay: 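Genes whose loss raises luciferase production in HEK293 cells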 (primary screen). System: human HEK293 embryonic kidney cells stably expressing firefly luciferase (HEK-CMV-Luc2-Hygro). Reagent: single siRNA against human genes, 0.8 pmol siRNA per well. Duration: 72 h. Measured: 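Luciferase light (ONE-Glo) measured on one replicate plate set and viability (CellTiter-Glo) on the other, scaled to a negative control siRNA, with robust z-scores and luciferase per cell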. Reading the numbers: total luciferase, z-score and total luciferase, % of control: higher = more reporter protein produced; luciferase per cell, z-score: higher = more reporter output per viable cell; viable cells, % of control: higher = more viable cells. Hit rule: 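Active when the median/MAD z-score for overall luciferase is greater than 3; a gene was taken forward for validation with new siRNAs if at least two of its three siRNAs passed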. Meaning of the calls: active = raised luciferase; inactive = no rise.
Here is an unselected part of about 59,000 reagents. In the full data, about 1,510 (2.6%) are marked active. 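Calls use total luciferase alone and ignore viability, so some active siRNAs may act by altering cell number.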

target	PubChem SID	total luciferase, z-score	total luciferase, % of control	luciferase per cell, z-score	viable cells, % of control	Call
SERPINB7	SID160720645	4.7	175	3.85	71.1	active
SERPINB7	SID160720646	-0.292	76.1	-1.19	116	inactive
SERPINB7	SID160720647	-1.47	52.7	-1.8	94.5	inactive
TMEM132B	SID160755001	0.29	87.6	-0.582	114	inactive
TMEM132B	SID160755002	0.955	101	0.321	104	inactive
TMEM132B	SID160755003	-0.688	68.2	-1.52	114	inactive
ASPH	SID160731248	-0.197	78	1.54	58.1	inactive
ASPH	SID160739495	0.116	84.2	-0.122	97.2	inactive
ASPH	SID160739601	-0.338	75.2	-0.786	103	inactive

Records above whose gene name starts with T or t:
target	PubChem SID	total luciferase, z-score	total luciferase, % of control	luciferase per cell, z-score	viable cells, % of control	Call
TMEM132B	SID160755001	0.29	87.6	-0.582	114	inactive
TMEM132B	SID160755002	0.955	101	0.321	104	inactive
TMEM132B	SID160755003	-0.688	68.2	-1.52	114	inactive

Continued.
target	PubChem SID	total luciferase, z-score	total luciferase, % of control	luciferase per cell, z-score	viable cells, % of control	Call
KRT20	SID160741753	1.04	103	0.886	90.7	inactive
KRT20	SID160741754	1.59	114	0.605	108	inactive
KRT20	SID160741755	-0.816	65.7	-0.734	89	inactive
DNAJC17	SID160743182	-0.00191	81.8	0.535	79.4	inactive
DNAJC17	SID160743183	0.291	87.7	0.3	90.5	inactive
DNAJC17	SID160743184	-0.639	69.2	0.199	73.4	inactive
TRIOBP	SID160729896	1.09	104	1.25	83.4	inactive
TRIOBP	SID160729897	0.0497	82.9	-0.0238	93.2	inactive
TRIOBP	SID160729899	0.381	89.5	1.82	62	inactive
PRKG1	SID160714970	0.237	86.6	0.546	83.8	inactive
PRKG1	SID160714971	1.27	107	1.24	86.4	inactive
PRKG1	SID160714972	-0.71	67.8	-0.536	87.2	inactive
ZMPSTE24	SID160728035	-1.35	55.1	-0.808	76.1	inactive
ZMPSTE24	SID160728040	-0.057	80.8	-0.704	109	inactive
ZMPSTE24	SID160728041	0.92	100	0.00424	112	inactive
